Values quoted from earlier work in US4405743A, “Pyrazolylpyrimidine derivatives” (Hokko Chemical Industry Co., Ltd., priority 1981, dated 1983).
At least one structure is not confirmed: it was looked up by name or label, or the drawing left a doubt.

Tested on: rice blast
Details: Annual Report of the Takeda's Research Institute, Vol. 24, pages 250-258 (1965); cited from earlier work
Note: test concentration or dose not given here.

Cc1cc(SC#N)nc(-n2nc(C)cc2C)n1 [Comparative Chemical 3, 2-(3,5-dimethyl-1-pyrazolyl)-4-methyl-6-thiocyanopyrimidine]
activity of controlling rice blast: show an activity of controlling rice blast
